We go through 1 sequence from publication PMC4267619.

A weaker result is weaker than the reference pair of the same experiment.

For this data set, the target named is YT521-B YTH domain (Rattus norvegicus) (UniProt Q9QY02). The experiment in a line: NMR titration (1H-15N HSQC). The conditions noted are these: 20 C, 0.2 mM protein, fast/intermediate exchange; 25 mM NaH2PO4, 25 mM NaCl, 10 mM beta-mercaptoethanol, pH 7; recombinant protein; residues 347-502.

As for UGACAC [5'-UGACAC-3'], the binding result is “binds more weakly”.
